Data reported in PMC5440813.
These are yes or no findings as the source states them, for the method shown. Binding seen in cells or lysates may run through a third protein. A result given as binding can be weak or reduced; the word gives no strength.

Amino acid sequences for entries named in this document (tags omitted). A change or cut given only in a name is not applied to a line headed by its entry. Residues count along the entry.
UniProt Q9LKA3: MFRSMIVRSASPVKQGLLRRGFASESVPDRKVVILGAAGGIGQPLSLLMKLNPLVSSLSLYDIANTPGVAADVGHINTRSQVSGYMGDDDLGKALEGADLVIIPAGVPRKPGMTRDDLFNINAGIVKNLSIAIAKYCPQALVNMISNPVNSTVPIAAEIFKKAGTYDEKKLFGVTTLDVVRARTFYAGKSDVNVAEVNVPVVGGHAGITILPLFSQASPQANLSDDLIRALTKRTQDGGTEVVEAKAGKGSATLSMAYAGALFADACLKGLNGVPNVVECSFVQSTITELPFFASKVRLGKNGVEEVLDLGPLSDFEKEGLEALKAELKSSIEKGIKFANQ
UniProt P93033, residues 29-492: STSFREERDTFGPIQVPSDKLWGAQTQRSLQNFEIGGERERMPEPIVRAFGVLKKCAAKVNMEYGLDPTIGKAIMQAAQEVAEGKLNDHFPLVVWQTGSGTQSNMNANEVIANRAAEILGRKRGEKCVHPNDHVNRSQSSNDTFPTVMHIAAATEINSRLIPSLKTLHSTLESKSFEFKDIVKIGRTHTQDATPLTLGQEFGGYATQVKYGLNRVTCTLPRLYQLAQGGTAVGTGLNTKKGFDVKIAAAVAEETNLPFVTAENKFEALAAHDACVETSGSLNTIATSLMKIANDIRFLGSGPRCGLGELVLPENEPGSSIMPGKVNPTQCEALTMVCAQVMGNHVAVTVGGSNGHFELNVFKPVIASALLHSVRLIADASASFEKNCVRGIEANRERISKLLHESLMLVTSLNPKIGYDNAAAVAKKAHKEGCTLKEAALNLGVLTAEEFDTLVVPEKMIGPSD
UniProt Q9ZP06: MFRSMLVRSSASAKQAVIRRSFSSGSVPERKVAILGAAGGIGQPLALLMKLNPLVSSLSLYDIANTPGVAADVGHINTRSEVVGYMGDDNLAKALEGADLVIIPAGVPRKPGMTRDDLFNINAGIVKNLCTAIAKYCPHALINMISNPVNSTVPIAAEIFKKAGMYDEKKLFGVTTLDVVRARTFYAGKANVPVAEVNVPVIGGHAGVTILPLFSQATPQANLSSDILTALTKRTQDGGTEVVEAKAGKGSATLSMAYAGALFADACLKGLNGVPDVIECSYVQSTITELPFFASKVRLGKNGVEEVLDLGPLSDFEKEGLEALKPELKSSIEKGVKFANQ

Experiments:
[1] = target: MDH2-VYNE (Arabidopsis thaliana) (UniProt Q9LKA3); assay: split reporter; BiFC: SCYCE- and VYNE-tagged proteins transiently expressed in Arabidopsis mesophyll protoplasts, confocal microscopy with MitoTracker orange
[2] = target: T1, CSY4-SCYCE (Arabidopsis thaliana) (UniProt P20115); assay: as above
T1 sequence: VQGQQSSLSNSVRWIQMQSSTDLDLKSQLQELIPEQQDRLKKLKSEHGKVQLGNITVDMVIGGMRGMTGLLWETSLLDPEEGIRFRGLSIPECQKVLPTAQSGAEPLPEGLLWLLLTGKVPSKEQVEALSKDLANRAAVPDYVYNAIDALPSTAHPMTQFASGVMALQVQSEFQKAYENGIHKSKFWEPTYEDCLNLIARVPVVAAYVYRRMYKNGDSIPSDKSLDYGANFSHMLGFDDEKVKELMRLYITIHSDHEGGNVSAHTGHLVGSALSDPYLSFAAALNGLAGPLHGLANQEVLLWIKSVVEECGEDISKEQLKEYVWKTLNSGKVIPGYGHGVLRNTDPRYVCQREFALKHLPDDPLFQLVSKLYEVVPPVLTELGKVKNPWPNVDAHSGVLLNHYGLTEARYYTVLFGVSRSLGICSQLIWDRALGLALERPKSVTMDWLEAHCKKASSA

| binding [1] | binding [2] | Substance |
| --- | --- | --- |
| binds |  | FUM1-SCYCE (from UniProt P93033 29-492) (enzyme) |
|  | binds | MDH1-VYNE (from UniProt Q9ZP06) (enzyme) |
|  | binds | MDH2-VYNE (from UniProt Q9LKA3) (enzyme) |
